Measurements reported in PubChem BioAssay AID1259254 (NCATS, 2017).

Test: 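Finding genes that stop cells copying their DNA twice in one cycle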 (primary screen)
System: human HCT116 colorectal cancer cells
Knock-down reagent: single siRNA against human genes
Timing: 3 days
Detection: 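Nuclei stained with Hoechst and imaged; cell-cycle phase assigned by DNA content; G2 share scaled per plate, non-targeting siRNA 0%, GMNN siRNA 100%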
Direction: G2 robust z-score: higher = more G2 cells, more excess DNA replication
Active means: 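Active siRNAs have a G2 robust z of 5 or more median absolute deviations over the median, which in these data means about 38% or higher of GMNN control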
Here is a random part of about 59,000 deposited reagents. About 1,550 of them (2.6%) count as active. 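G2 share is only a proxy for re-replication; each gene was hit by three separate siRNAs, and active genes were retested.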 The numbers tell different reagents against one gene apart. Further read-outs or replicates are left out here. The record does not give: the amount of reagent.

G2 robust z-score, by gene knocked down and reagent
SPPL2C (GeneID 162540): #1 0.584 inactive; #2 7.57 active; #3 -0.247 inactive
SLC2A4RG (GeneID 56731): #1 1.27 inactive; #2 -0.746 inactive; #3 -0.729 inactive
ADAMTS10 (GeneID 81794): #1 3.25 inactive; #2 4.34 inactive; #3 0.394 inactive
PPP2R1A (GeneID 5518): #1 8 active; #2 6.23 active; #3 4.74 inactive
SF3A1 (GeneID 10291): #1 2.71 inactive; #2 2.77 inactive; #3 5.51 active
PRSS57 (GeneID 400668): #1 -0.448 inactive; #2 0.117 inactive; #3 -1.07 inactive
LOC643675 (retired record) (GeneID 643675): #1 1.37 inactive; #2 2.22 inactive; #3 -0.309 inactive
DUSP19 (GeneID 142679): #1 -0.632 inactive; #2 -0.055 inactive; #3 0.418 inactive
ADGRG4 (GeneID 139378): #1 0.828 inactive; #2 0.538 inactive; #3 0.533 inactive
BLID (GeneID 414899): #1 -0.462 inactive; #2 1.59 inactive; #3 3.05 inactive
DUSP10 (GeneID 11221): #1 7.09 active; #2 1.91 inactive; #3 -0.59 inactive
IQGAP2 (GeneID 10788): #1 3.44 inactive; #2 -0.965 inactive; #3 -1.22 inactive
KRTAP4-11 (GeneID 653240): #1 0.184 inactive; #2 -0.616 inactive; #3 0.0696 inactive
DRD2 (GeneID 1813): #1 -0.205 inactive; #2 -0.813 inactive; #3 -0.95 inactive

Reprinted from above (5 entries):
G2 robust z-score, by gene knocked down and reagent
PRSS57 (GeneID 400668): #3 -1.07 inactive
LOC643675 (retired record) (GeneID 643675): #1 1.37 inactive; #2 2.22 inactive; #3 -0.309 inactive
DUSP19 (GeneID 142679): #1 -0.632 inactive

The listing continues:
G2 robust z-score, by gene knocked down and reagent
CHRNB2 (GeneID 1141): #1 1.61 inactive; #2 -0.562 inactive; #3 -0.509 inactive
BMS1P9 (GeneID 653458): #1 -0.468 inactive; #2 6.11 active; #3 1.85 inactive
GJC3 (GeneID 349149): #1 -0.45 inactive; #2 -0.565 inactive; #3 5.98 active
SMTN (GeneID 6525): #1 1.61 inactive; #2 -0.221 inactive; #3 -0.622 inactive
CPA3 (GeneID 1359): #1 -0.664 inactive; #2 0.399 inactive; #3 3.42 inactive
OR8B8 (GeneID 26493): #1 3.59 inactive; #2 0.37 inactive; #3 1.9 inactive
PGC (GeneID 5225): #1 1.56 inactive; #2 0.332 inactive; #3 -1.1 inactive
ODAM (GeneID 54959): #1 0.346 inactive; #2 -0.115 inactive; #3 0.154 inactive
VAPA (GeneID 9218): #1 1.66 inactive; #2 0.048 inactive; #3 2.37 inactive
GRTP1 (GeneID 79774): #1 -0.91 inactive; #2 -0.186 inactive; #3 0.205 inactive
LRRC73 (GeneID 221424): #1 0.0791 inactive; #2 1.92 inactive; #3 9.06 active
DNASE1L1 (GeneID 1774): #1 -0.652 inactive; #2 0.393 inactive; #3 -0.0215 inactive
COIL (GeneID 8161): #1 -0.198 inactive; #2 1.18 inactive; #3 2.12 inactive
RGS7 (GeneID 6000): #1 0.688 inactive; #2 0.97 inactive; #3 -0.584 inactive
SHROOM1 (GeneID 134549): #1 -0.917 inactive; #2 9.97 active; #3 -0.164 inactive
